Source: PubChem BioAssay AID652243 (Drosophila RNAi Screening Center, 2013)
Assay: 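Fly regulators of androgen-dependent reporter output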 (primary screen). Cells: Drosophila S2R+ cells. Reagents: long dsRNA against Drosophila genes. Timing: 72 h (48 h, then 24 h hormone). Treatment: synthetic androgen R1881 at 10 nM for 24 h. Measurement: 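Firefly light from an androgen-responsive reporter and Renilla control light per well, raw and unnormalised, for each of two replicates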. Reading the numbers: firefly reporter light: higher = more light from androgen-responsive reporter; Renilla control light: higher = more constitutive control signal (cell number, transfection). Active means: 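Hit when the log firefly-to-Renilla ratio dropped or increased by a fixed fold versus the mean of GFP or LacZ controls across duplicate plates; lowering cut given as 1.5 and as 3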. Meaning of the calls: active = hit: reporter lowered or raised; inactive = no hit.
In all, the deposit lists about 24,000 reagents; shown is an unselected part of those that have a named target and a result. In the full data, 246 (1%) got an active call. 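Plates not normalised; calls are printed but the firefly/Renilla ratio behind them is not deposited; fold cut for lowering reported inconsistently.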 Raw values vary from plate to plate and are shown uncorrected. A number with no mark means an inactive call. Not stated in the record: the amount of reagent.

| target gene | DRSC id | firefly reporter light, replicate 1 | firefly reporter light, replicate 2 | Renilla control light, replicate 1 | Renilla control light, replicate 2 |
| --- | --- | --- | --- | --- | --- |
| CR33315 | DRSC22947 | 2.51e5 | 9.49e5 | 6.99e5 | 2.11e6 |
| CR33315 | DRSC27669 | 2.07e5 | 1.92e5 | 4.06e5 | 7.79e5 |
| CG14200 | DRSC19555 | 9300 | 10318 | 42179 | 28453 |
| CG14200 | DRSC22979 | 4.52e5 | 4.99e5 | 1.26e6 | 1.05e6 |
| CG14200 | DRSC25784 | 3.15e5 | 2.76e5 | 7.60e5 | 7.52e5 |
| Cpr64Ab | DRSC08461 | 2.67e5 | 2.75e5 | 1.80e6 | 2.02e6 |
| Cpr64Ab | DRSC25195 | 6.45e5 | 6.29e5 | 8.14e5 | 6.85e5 |
| E(spl)mbeta-HLH | DRSC16697 | 1.49e5 | 70071 | 7.86e5 | 5.77e5 |
| Eig71Eg | DRSC11154 | 2.84e5 | 2.11e5 | 2.91e6 | 2.48e6 |
| Pp2B-14D | DRSC20270 | 3.60e5 | 3.44e5 | 2.18e6 | 2.13e6 |
| Pp2B-14D | DRSC23315 | 7.45e5 | 9.57e5 | 1.87e6 | 1.78e6 |
| Ugt307A1 | DRSC02138 | 1.81e5 | 1.36e5 | 1.47e6 | 1.31e6 |
| sbb | DRSC05723 | 2.18e5 | 2.29e5 | 5.47e5 | 5.24e5 |
| sbb | DRSC07676 | 83145 | 1.12e5 | 1.02e6 | 1.02e6 |
| sbb | DRSC28911 | 4.88e5 | 5.08e5 | 1.71e6 | 2.06e6 |
| Ald2 | DRSC15799 | 1.15e5 | 2.19e5 | 1.96e6 | 2.13e6 |
| Ald2 | DRSC25164 | 4.15e5 | 4.65e5 | 5.71e5 | 6.58e5 |
| CG32452 | DRSC11581 | 1.54e5 | 1.40e5 | 5.16e5 | 3.52e5 |
| CG32452 | DRSC22250 | 6.06e5 | 7.03e5 | 2.94e6 | 2.54e6 |
| CG32452 | DRSC26705 | 3.28e5 | 2.69e5 | 3.51e5 | 3.97e5 |
| Tsp42En | DRSC06185 | 4.20e5 | 3.50e5 | 2.69e6 | 2.76e6 |
| CG12106 | DRSC17805 | 1.18e5 | 1.05e5 | 6.82e5 | 6.78e5 |
| c(3)G | DRSC15245 | 85370 | 63126 | 8.01e5 | 5.92e5 |
| c(3)G | DRSC26062 | 3.42e5 | 3.32e5 | 3.80e5 | 6.72e5 |
